Earlier results as cited in patent EP0567324A1, “Medicaments for treating gar-transformylase-dependent tumors” (ELI LILLY AND COMPANY, priority 1992, dated 1993).
Some results were stated once for a whole list of compounds, not compound by compound.

Test system: folate binding protein
Settings: relative to the (6S)-isomer; Ratnam et al. 1991; cited from earlier work

Structure (SMILES): Nc1nc2c(c(=O)[nH]1)N(C=O)[C@H](CNc1ccc(C(=O)N[C@@H](CCC(=O)O)C(=O)O)cc1)CN2 [(6R)-5-formyl-5,6,7,8-tetrahydrofolic acid]
- efficiency in binding the folate binding protein compared with respective (6S)-isomer: 10-20 fold
